Screening data, single-dose tests

By UniProt entry, the sequences of proteins in these tests, tags left out. Residues count along the entry.
UniProt P9WFT3, whole entry: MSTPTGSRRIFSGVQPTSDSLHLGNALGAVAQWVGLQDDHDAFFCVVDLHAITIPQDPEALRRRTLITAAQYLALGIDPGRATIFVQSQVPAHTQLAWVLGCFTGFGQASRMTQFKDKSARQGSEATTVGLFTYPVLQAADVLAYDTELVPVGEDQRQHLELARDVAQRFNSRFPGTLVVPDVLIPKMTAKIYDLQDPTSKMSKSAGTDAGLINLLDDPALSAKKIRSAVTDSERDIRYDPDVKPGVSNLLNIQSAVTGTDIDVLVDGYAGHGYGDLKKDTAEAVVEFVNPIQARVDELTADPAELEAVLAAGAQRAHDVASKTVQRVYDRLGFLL
UniProt P9WNZ1, whole entry: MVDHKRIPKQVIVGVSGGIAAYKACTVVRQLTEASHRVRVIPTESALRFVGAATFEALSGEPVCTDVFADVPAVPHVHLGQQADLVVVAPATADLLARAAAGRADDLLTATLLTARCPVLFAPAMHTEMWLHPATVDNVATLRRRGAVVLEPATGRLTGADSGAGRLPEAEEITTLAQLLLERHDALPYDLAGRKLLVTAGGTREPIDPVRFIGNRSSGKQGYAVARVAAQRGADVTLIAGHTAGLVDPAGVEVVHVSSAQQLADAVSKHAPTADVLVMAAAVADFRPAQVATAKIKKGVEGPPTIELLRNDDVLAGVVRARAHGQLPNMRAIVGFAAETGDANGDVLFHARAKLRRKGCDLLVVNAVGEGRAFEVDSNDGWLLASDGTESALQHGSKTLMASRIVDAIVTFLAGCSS
UniProt A4I591, 1-473: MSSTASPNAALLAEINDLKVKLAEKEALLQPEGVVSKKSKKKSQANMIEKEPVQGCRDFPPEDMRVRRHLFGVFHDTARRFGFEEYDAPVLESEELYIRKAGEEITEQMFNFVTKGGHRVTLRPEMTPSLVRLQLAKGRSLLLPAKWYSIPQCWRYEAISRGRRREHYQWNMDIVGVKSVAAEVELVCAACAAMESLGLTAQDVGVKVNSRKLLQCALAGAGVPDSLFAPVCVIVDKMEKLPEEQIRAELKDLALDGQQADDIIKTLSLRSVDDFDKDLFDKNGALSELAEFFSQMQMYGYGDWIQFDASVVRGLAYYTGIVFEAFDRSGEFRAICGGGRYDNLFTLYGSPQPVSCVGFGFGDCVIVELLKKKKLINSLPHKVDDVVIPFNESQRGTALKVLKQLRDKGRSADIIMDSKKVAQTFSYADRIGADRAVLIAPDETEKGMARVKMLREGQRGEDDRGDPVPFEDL
UniProt I6X8D2, whole entry: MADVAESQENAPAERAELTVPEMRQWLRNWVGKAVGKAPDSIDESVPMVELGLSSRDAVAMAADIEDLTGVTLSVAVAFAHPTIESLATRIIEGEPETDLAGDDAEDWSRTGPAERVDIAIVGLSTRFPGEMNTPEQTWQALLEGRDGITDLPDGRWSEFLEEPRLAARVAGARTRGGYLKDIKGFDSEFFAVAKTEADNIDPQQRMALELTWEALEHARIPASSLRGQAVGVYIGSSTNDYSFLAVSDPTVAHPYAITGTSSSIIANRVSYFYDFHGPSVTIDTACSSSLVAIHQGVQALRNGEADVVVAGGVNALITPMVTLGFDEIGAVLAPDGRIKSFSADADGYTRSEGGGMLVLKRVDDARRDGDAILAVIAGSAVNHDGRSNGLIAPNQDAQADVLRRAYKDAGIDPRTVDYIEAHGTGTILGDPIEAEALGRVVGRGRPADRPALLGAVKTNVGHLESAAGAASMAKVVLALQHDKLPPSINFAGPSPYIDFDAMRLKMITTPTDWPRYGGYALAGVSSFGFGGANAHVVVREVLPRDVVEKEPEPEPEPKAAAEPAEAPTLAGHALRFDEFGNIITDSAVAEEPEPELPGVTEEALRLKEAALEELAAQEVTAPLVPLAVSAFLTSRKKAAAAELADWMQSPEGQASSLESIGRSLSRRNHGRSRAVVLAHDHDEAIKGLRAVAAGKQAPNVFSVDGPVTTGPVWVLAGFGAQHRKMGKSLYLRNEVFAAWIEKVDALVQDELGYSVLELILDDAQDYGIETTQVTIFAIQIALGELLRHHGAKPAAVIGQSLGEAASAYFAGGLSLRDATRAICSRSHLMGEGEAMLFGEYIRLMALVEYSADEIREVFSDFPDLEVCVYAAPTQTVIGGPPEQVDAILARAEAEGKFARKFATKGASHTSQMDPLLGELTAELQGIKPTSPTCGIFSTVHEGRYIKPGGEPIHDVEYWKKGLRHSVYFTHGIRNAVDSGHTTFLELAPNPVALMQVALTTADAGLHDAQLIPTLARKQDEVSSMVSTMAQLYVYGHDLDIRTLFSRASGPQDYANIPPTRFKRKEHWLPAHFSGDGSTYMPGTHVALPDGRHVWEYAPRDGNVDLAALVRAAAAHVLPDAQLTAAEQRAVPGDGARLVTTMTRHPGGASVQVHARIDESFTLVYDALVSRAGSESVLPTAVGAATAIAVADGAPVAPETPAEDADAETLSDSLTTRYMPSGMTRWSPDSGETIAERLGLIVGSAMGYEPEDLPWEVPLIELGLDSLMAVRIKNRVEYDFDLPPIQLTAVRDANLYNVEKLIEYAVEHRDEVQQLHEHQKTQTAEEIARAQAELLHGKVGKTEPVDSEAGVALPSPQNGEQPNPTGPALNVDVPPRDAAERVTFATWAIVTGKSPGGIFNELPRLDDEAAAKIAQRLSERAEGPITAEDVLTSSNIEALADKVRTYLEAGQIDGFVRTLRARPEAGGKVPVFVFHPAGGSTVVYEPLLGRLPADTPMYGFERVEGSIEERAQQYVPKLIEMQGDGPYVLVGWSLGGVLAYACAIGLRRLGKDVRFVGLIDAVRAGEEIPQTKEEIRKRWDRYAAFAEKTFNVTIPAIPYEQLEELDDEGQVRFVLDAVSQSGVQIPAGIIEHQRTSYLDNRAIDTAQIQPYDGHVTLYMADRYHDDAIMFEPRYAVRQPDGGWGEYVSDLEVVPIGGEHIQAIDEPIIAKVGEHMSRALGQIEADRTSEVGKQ

MtTrpRS: 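Tryptophan-tRNA ligase, Mycobacterium tuberculosis (UniProt P9WFT3). Enzyme assay of tryptophanyl-tRNA synthetase; the read-out is not stated. Tested at 10 µM. Direction is not recorded; retested compounds ran higher, which suggests that high means inhibition. Size under these conditions: about 65,000 compounds, about 64 of them at 50% or above in at least one test.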
CoaBC: 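Enzyme assay of CoaBC with a phosphate dye (Biomol Green) read at 650 nm. Target: Coenzyme A biosynthesis protein CoaBC, Mycobacterium tuberculosis (UniProt P9WNZ1). Compounds at 30 µM. Direction is inferred from only a few compounds that gave an IC50; most scored high, so higher reads as stronger inhibition. Most strong results did not repeat in a second test. Size under these conditions: about 67,000 compounds, about 40 of them at 50% or above in at least one test.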
LiHisRS: 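Histidine-tRNA ligase, Leishmania infantum (UniProt A4I591). Enzyme assay of histidyl-tRNA synthetase; the read-out is not stated. Compounds at 30 µM. The record gives no direction; compounds that gave an IC50 in retests scored well above the rest, so higher reads as stronger inhibition. The assay is labelled LdHisRS but filed under L. infantum. Size under these conditions: about 69,000 compounds, about 410 of them at 50% or above in at least one test.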
Pks13 thioesterase: 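Polyketide synthase Pks13, Mycobacterium tuberculosis (UniProt I6X8D2). Enzyme assay of the thioesterase domain of polyketide synthase 13; the read-out is not stated. Tested at 30 µM. The record gives no direction; the compounds picked for IC50 retests had high values, so higher reads as stronger inhibition. Of about 67,000 compounds tested this way, about 300 (0.46%) reached 50% or more in at least one test.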

Results are given as percent effect.
The controls that fix the scale are not given in the record; negative values are as filed.
The compounds are a random part of those screened.
A dash means the value is not listed here; it may have been measured.

structure,MtTrpRS,CoaBC,LiHisRS,Pks13 thioesterase
COc1ccc2c(c1)c(C(=O)Nc1cc(C)n(C)n1)cn2C(C)C,7.577,17.03,10.42,-25.32
CC(C)CN1CCC2(Cc3ccccc3NC2=O)C1 (centres undefined),-3.968,4.684,10.53,-21.53
Cc1nn(C)c(Cl)c1C1CCCN1Cc1cccc(C(N)=O)c1 (centres undefined),-1.834,1.837,16.95,0.09008
CN(C)C(=O)N1C[C@H]2CCC[C@@]2(COc2ccccn2)C1,-0.4794,2.703,9.804,-17.05
CN(C(=O)c1cn(C)cn1)[C@@H]1CCC[C@@H](Oc2ccccc2)[C@@H]1O,0.7536,2.92,11.58,-13.86
Cc1ccc2nc(-c3cnc(N)nc3)cc(C(=O)N(C)C)c2c1,-4.288,-3.361,-0.8547,1.847
O=C(CN1CCC(c2ccccc2)C1)NC(=O)NCC(F)(F)F (centres undefined),15.76,3.422,12.5,-30.66
CC(C)(C)C(=O)NCC(=O)NC1CC(c2cccc(Cl)c2)C1 (centres undefined),-0.1638,-3.204,21.13,-21.54
CCc1noc(C(C)N(C)CC(=O)Nc2cccc(C)c2C)n1 (centres undefined),0.8997,7.042,17.28,-6.638
COc1c(CNC2CCOc3c(Cl)cccc32)c(C(C)C)nn1C (centres undefined),17.18,1.786,0,-4.939
COc1ccc(C2OC(COc3ccccc3Br)=NN2C(C)=O)cc1 (centres undefined),-1.433,0.1267,8.738,0.7215
O=C(Nc1cccnc1)[C@H]1C[C@H]2OCC[C@H]2N(Cc2ccc(F)cc2)C1,1.744,-10.5,14.55,-11.39
Cc1cc(C(=O)NCCC2CCN(C)CC2)ccc1N(C)S(C)(=O)=O,-4.844,-0.3686,3.101,4.654
CN1CCN(C(=O)c2cn(-c3ccc(C(F)(F)F)cn3)nn2)CC1,-3.43,-4.839,7.895,-7.144
CC(=O)N1N=C(COc2ccc(C)cc2)OC1c1ccc(N(C)C)cc1 (centres undefined),3.228,1.805,20.22,3.874
O=C(NCc1ccccc1)c1nnc2ccc(N3CCOCC3)cc2n1,1.206,7.133,-17.48,50.83
Cc1cc(C(=O)N2CC[C@H]3C[C@H](c4ccncn4)O[C@@H]3C2)no1,0.8718,-2.101,1.818,-13.25
CN(C)c1nccc(C2CN(S(C)(=O)=O)C2)n1,3.453,3.641,8.571,-54.96
CCCNC(=O)Cn1cc(OC)c(=O)cc1CSc1nc(C)cc(C)n1,-2.524,6.997,12.2,10.69
CS(=O)(=O)NC[C@]12COC[C@H]1CN(C(=O)c1ccccc1)C2,-5.182,-10.27,-150.5,-6.186
Cc1noc(C)c1CN(C)C(=O)CCn1c(=O)n(C)c2ccccc21,-2.227,2.672,19.51,3.003
CN(C)c1ncnc2c1CCN(C(=O)CN1CCCCC1)C2,-6.317,5.043,20.97,-24.59
O=C(O)c1ccc(F)c(S(=O)(=O)Nc2c(F)cccc2-n2cccn2)c1,4.085,2.679,16.5,-15.09
CC(c1ccccc1)N(C)C(=O)CN1CCCc2cccc(F)c21 (centres undefined),-4.114,-3.64,17.24,-57.88
CC1COc2ccccc2N1C(=O)c1ccnc(-n2cncn2)c1 (centres undefined),12.54,4.43,19.48,-6.964
O[C@H]1COCCN(Cc2cccc(C(F)(F)F)c2)C1,-5.497,-2.935,25,-28.23
CCn1nc(CC(C)C)cc1C(=O)NCCn1cccc1,-1.896,-4.219,6.731,-9.081
Cc1cc2ncn(C(=O)N3CCOCC3)c2cc1C,-11.43,-5.521,9.929,1.085
Cc1cc2ccccc2n1CCC(=O)N1CCCC2(CC1)CNC(=O)O2 (centres undefined),3.453,2.836,35.48,-1.368
Cc1csc([C@H]2C[C@@H]3CCN(Cc4cc(C)on4)C[C@H]3O2)n1,-,1.485,11.71,-10.89
CCC(C(=O)NCc1ccncc1)N(c1ccc(OC)cc1)S(C)(=O)=O (centres undefined),0.1776,7.143,10.68,-15.49
O=C(O)Cn1ccc(=O)c2ccccc21,5.372,0.9639,14.29,-3.109
O[C@]1(c2ccccn2)CC[C@@H]2CN(Cc3cccc4ncccc34)C[C@@H]21,2.425,-1.111,27.78,-47.16
CC(C)c1nc(C2CCCN(C(=O)CN3CCN(C)CC3)C2)no1 (centres undefined),-4.439,6.329,14.29,-22.36
CC(=O)Nc1ccc(CN2CCOC2=O)cc1,1.57,10.85,6.061,-18.7
O=C1[C@@H]2CN(Cc3cc4ccccc4o3)C[C@]2(C(=O)O)CN1CC1CC1,1.816,9.073,9.091,-17.72
COC(=O)N1CCC(NC(=O)c2cc(S(N)(=O)=O)ccc2C)CC1,2.203,-0.4959,18.37,8.099
CS(=O)(=O)N1CCc2[nH]cnc2C12CCN(C(=O)c1cccnc1)CC2,-2.828,0.3636,6.452,1.559

Repeated from the top, 3 entries:

With COc1ccc2c(c1)c(C(=O)Nc1cc(C)n(C)n1)cn2C(C)C the screen gave MtTrpRS: 7.577%; CoaBC: 17.03%; LiHisRS: 10.42%; Pks13 thioesterase: -25.32%.
With CC(C)CN1CCC2(Cc3ccccc3NC2=O)C1 (centres undefined) the screen gave MtTrpRS: -3.968%; CoaBC: 4.684%; LiHisRS: 10.53%; Pks13 thioesterase: -21.53%.
With Cc1nn(C)c(Cl)c1C1CCCN1Cc1cccc(C(N)=O)c1 (centres undefined) the screen gave MtTrpRS: -1.834%; CoaBC: 1.837%; LiHisRS: 16.95%; Pks13 thioesterase: 0.09008%.

Source: ChEMBL document CHEMBL3988442, “University of Dundee, Small-Polar-MMV Screening Library” (2021).